Results: paper PMC9646764

Molecular target: T1, TFPI2-Fc (Fc-tagged TFPI2) (UniProt P48307)
T1 sequence: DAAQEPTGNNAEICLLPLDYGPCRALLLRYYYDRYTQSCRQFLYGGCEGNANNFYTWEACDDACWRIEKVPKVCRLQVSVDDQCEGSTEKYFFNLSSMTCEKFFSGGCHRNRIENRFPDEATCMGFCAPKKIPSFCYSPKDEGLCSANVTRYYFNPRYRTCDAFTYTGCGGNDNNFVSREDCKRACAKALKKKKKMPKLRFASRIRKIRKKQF
Assay: BLI; […] (10 ug/mL) […] (BLItz, ForteBio), […] (0.5% BSA); […]; dissociation in DPBS (0.5% BSA); both purified

In the case of “TcdB4.2 (full-length recombinant toxin B variant 4.2) (Clostridioides difficile)”, the binding is reported as “no binding (tested: 500 nM)”.

Results are given in words; binding and its absence hold for the method and conditions named. Tags and fused reporters may be left off the sequences shown.
